# Assay results published in the supplement of paper PMC4604168 (melanoma cell lines).
# This is one part of the list. Many values rest on one well or one pass, so single values are uncertain.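 Cells were imaged in 1,536-well plates, and nuclei stained with an antibody against cleaved PARP were counted against all DNA-stained nuclei to give the apoptosis fraction. Screening doses were chosen to leave most cells alive, and resting and induced cleaved-PARP levels differ strongly between cell lines.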
# Test system: RVH-421
# Assay: cleaved PARP positive nuclei fraction relative to DMSO control; melanoma cells; higher = more apoptosis
# Conditions: library dose: low library concentration; 72 h
row,SMILES,cleaved PARP positive nuclei fraction [%]
1,"CCN(CC)CCCCNc1ncc2cc(-c3cc(OC)cc(OC)c3)c(NC(=O)NC(C)(C)C)nc2n1 + COc1cc(N2CCC(N3CCN(C)CC3)CC2)ccc1Nc1ncc(Cl)c(Nc2ccccc2S(=O)(=O)C(C)C)n1 [NVP-TAE684] (first compound 0.1 µM, partner dose 0.08 µM)",107
2,"O=C(Nc1ccccc1)c1cc([N+](=O)[O-])ccc1Cl + Cc1cc([N+](=O)[O-])ccc1NS(=O)(=O)c1cc(Cl)ccc1Cl [FH535] (first compound 2 µM, partner dose 1 µM)",77.4
3,"COc1ccc(-c2ccc3c(N4CCOCC4)nc(N4C[C@@H](C)O[C@@H](C)C4)nc3n2)cc1CO + Cn1cc(/C=C2\C(=O)Nc3cccnc32)c2ccccc21 [GW441756] (first compound 0.02 µM, partner dose 0.4 µM)",48.3
4,"COc1cc2c(Oc3ccc4[nH]c(C)cc4c3F)ncnc2cc1OCCCN1CCCC1 [cediranib] + O=c1cc(-c2cccc3c2Sc2ccccc2S3)oc(N2CCOCC2)c1 [KU55933] (first compound 0.4 µM, partner dose 1 µM)",67.5

# Test system: SkMel28
# Assay: as above
# Conditions: library dose: low library concentration; 72 h
row,SMILES,cleaved PARP positive nuclei fraction [%]
1,"O=C(Nc1ccccc1)c1cc([N+](=O)[O-])ccc1Cl + O=S(=O)(c1ccccc1)N(CC(F)(F)F)c1ccc(C(O)(C(F)(F)F)C(F)(F)F)cc1 [T0901317] (first compound 2 µM, partner dose 1.4 µM)",200
2,"CN(C)S(=O)(=O)c1ccc2c(c1)/C(=C/c1cc3c([nH]1)CCCC3)C(=O)N2 + NCC(=O)Nc1ccc(-n2nc(C(F)(F)F)cc2-c2ccc3c(ccc4ccccc43)c2)cc1 [OSU03012] (first compound 0.4 µM, partner dose 1 µM)",151
3,"N#Cc1c(O)c2c(-c3ccc(-c4ccccc4O)cc3)csc2[nH]c1=O + O=S(=O)(c1ccccc1)N(CC(F)(F)F)c1ccc(C(O)(C(F)(F)F)C(F)(F)F)cc1 [T0901317] (first compound 2 µM, partner dose 1.4 µM)",85.4
4,"NCC(=O)Nc1ccc(-n2nc(C(F)(F)F)cc2-c2ccc3c(ccc4ccccc43)c2)cc1 + COc1cc2c(Oc3ccc4[nH]c(C)cc4c3F)ncnc2cc1OCCCN1CCCC1 [cediranib] (first compound 1 µM, partner dose 0.4 µM)",144
5,"CN(NC(=O)CC(=O)NN(C)C(=S)c1ccccc1)C(=S)c1ccccc1 + c1cc(-c2cnn3cc(-c4ccc(OCCN5CCCCC5)cc4)cnc23)ccn1 [Dorsomorphin] (first compound 0.006 µM, partner dose 0.4 µM)",134
6,"COc1cc2c(Oc3ccc4[nH]c(C)cc4c3F)ncnc2cc1OCCCN1CCCC1 [cediranib] + c1cc(-c2cnn3cc(-c4ccc(OCCN5CCCCC5)cc4)cnc23)ccn1 [Dorsomorphin] (first compound 0.4 µM, partner dose 0.4 µM)",110
7,"CN(NC(=O)CC(=O)NN(C)C(=S)c1ccccc1)C(=S)c1ccccc1 + N#Cc1c(O)c2c(-c3ccc(-c4ccccc4O)cc3)csc2[nH]c1=O [A769662] (first compound 0.006 µM, partner dose 2 µM)",54.6
8,"O=C(O)c1ccc(-c2c[nH]c3ncc(-c4ccccc4)cc23)cc1C1CCCC1 + CN(NC(=O)CC(=O)NN(C)C(=S)c1ccccc1)C(=S)c1ccccc1 [STA4783] (first compound 0.16 µM, partner dose 0.006 µM)",68.4
9,"CN(C)S(=O)(=O)c1ccc2c(c1)/C(=C/c1cc3c([nH]1)CCCC3)C(=O)N2 + CC(C)CCN1c2nc(Nc3cc(F)c(O)c(F)c3)ncc2N(C)C(=O)C1C [BID1870] (first compound 0.4 µM, partner dose 0.2 µM)",125
10,"CN(NC(=O)CC(=O)NN(C)C(=S)c1ccccc1)C(=S)c1ccccc1 + COc1cc2c(Oc3ccc4[nH]c(C)cc4c3F)ncnc2cc1OCCCN1CCCC1 [cediranib] (first compound 0.006 µM, partner dose 0.4 µM)",73.5
11,"COC(=O)c1sccc1S(=O)(=O)Nc1ccc(Nc2ccccc2)cc1OC + COc1ccc(-c2ccc3c(N4CCOCC4)nc(N4C[C@@H](C)O[C@@H](C)C4)nc3n2)cc1CO [KU0063794] (first compound 1 µM, partner dose 0.02 µM)",164

# Quoted at random: two records from the list
row,SMILES,cleaved PARP positive nuclei fraction [%]
6,"COc1cc2c(Oc3ccc4[nH]c(C)cc4c3F)ncnc2cc1OCCCN1CCCC1 [cediranib] + c1cc(-c2cnn3cc(-c4ccc(OCCN5CCCCC5)cc4)cnc23)ccn1 [Dorsomorphin] (first compound 0.4 µM, partner dose 0.4 µM)",110
2,"CN(C)S(=O)(=O)c1ccc2c(c1)/C(=C/c1cc3c([nH]1)CCCC3)C(=O)N2 + NCC(=O)Nc1ccc(-n2nc(C(F)(F)F)cc2-c2ccc3c(ccc4ccccc43)c2)cc1 [OSU03012] (first compound 0.4 µM, partner dose 1 µM)",151
